Literature values, collected in US20060205697A1, “Novel betulin derivatives, preparation thereof and use thereof” (priority 2004, published 2006).
At least one compound was matched to its structure with a doubt left.

Test system: HIV-1 replication in H9 lymphocyte cells
Conditions: cited from earlier work

For `C=C(C)[C@@H]1CC[C@]2(C(=O)O)CC[C@]3(C)[C@H](CC[C@@H]4[C@@]5(C)CC[C@H](O)C(C)(C)[C@@H]5CC[C@]43C)[C@@H]12` [Betulinic acid], the T.I. is listed as 9.3 and the EC50 (read-out: EC50, inhibitory activity against HIV-1 replication) is listed as 1400 nM.
